For assay [1], the target named is T1, KIR6.2 (human (endogenous in brain tissue)) (UniProt Q14654).
T1 sequence: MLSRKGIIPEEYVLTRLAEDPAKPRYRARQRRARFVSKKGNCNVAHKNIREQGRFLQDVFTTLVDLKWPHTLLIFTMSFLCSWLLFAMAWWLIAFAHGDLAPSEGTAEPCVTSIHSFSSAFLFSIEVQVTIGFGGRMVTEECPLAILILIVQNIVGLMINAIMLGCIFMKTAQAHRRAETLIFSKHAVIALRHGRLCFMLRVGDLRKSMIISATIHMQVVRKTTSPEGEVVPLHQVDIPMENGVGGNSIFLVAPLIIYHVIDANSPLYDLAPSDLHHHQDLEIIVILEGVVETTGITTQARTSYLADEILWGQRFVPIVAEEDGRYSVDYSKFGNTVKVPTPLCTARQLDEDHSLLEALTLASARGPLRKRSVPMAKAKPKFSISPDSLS
Nature of the assay: FRET or BRET; antibody-based FRET (immunoFRET) on fixed cryosections of human contusion-TBI brain; two primary antibodies overnight at 4°C, CY3- and CY5-labelled secondary antibodies; laser scanning microscope. A general note: In BRET a luciferase serves as donor, and the signal depends on an acceptor being close.

Sequences of proteins named here, by UniProt entry; tags and fusion partners are left off.
UniProt Q8TD43: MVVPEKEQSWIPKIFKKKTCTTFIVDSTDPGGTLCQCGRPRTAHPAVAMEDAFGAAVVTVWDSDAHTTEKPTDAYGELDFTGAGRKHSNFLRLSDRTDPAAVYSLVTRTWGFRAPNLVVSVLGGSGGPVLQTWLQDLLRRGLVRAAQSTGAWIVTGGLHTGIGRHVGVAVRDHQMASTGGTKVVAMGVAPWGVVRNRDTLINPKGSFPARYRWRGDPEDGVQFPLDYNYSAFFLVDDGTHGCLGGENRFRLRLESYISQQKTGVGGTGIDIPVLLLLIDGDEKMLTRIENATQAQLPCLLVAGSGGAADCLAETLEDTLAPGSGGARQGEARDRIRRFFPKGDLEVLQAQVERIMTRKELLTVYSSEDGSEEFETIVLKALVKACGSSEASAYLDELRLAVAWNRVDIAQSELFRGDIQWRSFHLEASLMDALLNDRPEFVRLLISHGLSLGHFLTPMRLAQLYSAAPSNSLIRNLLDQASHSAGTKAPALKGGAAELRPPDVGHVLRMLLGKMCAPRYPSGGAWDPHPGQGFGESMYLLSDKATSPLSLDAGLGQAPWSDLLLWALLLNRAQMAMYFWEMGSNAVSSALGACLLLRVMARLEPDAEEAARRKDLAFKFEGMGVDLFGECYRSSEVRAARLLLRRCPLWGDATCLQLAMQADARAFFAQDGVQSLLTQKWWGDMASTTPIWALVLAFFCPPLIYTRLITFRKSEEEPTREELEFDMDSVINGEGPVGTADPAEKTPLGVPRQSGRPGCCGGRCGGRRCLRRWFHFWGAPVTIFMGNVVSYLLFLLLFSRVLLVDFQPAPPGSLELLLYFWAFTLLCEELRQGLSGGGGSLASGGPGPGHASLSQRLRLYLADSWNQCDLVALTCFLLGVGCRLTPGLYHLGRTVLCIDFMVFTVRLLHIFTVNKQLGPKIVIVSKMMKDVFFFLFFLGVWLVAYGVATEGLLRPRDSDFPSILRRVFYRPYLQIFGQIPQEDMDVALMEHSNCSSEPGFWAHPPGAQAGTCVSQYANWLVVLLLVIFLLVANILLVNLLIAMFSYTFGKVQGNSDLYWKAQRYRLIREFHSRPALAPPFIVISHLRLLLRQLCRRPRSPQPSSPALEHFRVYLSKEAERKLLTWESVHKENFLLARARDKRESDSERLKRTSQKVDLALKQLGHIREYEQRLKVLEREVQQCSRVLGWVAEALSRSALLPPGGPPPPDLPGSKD
UniProt Q09428: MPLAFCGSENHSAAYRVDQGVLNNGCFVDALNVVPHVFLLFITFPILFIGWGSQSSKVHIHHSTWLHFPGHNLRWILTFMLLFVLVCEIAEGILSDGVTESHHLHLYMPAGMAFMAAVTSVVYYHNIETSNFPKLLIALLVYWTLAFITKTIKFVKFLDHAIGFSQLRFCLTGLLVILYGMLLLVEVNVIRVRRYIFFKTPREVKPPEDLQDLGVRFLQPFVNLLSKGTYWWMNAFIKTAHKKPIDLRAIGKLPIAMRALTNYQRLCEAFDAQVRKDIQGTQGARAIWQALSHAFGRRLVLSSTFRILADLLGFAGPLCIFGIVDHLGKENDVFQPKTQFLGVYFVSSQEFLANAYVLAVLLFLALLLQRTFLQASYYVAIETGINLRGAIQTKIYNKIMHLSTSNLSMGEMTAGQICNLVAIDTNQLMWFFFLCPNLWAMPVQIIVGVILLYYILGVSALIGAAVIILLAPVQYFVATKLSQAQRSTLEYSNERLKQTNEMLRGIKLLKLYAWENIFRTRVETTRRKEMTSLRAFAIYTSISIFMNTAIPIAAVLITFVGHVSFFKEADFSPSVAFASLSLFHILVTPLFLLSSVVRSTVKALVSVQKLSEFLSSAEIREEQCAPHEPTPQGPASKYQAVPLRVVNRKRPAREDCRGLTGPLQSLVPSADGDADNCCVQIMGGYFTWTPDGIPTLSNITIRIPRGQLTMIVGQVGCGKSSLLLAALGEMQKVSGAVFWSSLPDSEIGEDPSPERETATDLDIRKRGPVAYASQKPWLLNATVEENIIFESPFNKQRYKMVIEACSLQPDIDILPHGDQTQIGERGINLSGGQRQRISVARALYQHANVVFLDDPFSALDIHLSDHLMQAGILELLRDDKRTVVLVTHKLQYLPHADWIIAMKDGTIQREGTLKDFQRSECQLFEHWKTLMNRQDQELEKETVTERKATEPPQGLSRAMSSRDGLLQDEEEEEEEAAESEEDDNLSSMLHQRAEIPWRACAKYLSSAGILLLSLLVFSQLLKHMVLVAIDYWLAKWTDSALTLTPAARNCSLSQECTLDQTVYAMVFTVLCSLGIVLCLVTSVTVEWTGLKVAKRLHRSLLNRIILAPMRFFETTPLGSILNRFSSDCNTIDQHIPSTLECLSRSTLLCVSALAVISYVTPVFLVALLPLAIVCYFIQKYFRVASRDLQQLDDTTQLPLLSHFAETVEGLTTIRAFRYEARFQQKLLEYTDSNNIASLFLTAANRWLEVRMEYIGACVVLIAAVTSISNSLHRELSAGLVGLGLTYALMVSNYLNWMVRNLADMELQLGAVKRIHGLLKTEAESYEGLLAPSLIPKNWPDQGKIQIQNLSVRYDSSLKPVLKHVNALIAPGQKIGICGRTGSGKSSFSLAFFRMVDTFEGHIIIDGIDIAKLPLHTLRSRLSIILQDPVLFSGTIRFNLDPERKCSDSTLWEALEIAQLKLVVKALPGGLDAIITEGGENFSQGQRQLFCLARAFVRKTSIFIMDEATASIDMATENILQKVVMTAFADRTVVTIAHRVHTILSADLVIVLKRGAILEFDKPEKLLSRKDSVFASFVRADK

Assay [2] addresses transient receptor potential cation channel subfamily M member 4 (TRPM4) (human (endogenous in brain tissue)) (UniProt Q8TD43). The description is as above.
For the next assay, the target named is myc-KIR6.2 (mouse) (UniProt Q61743). Nature of the assay: immunoblot of SDS gel bands (monomer and multimers); whole-cell lysate or anti-myc immunoprecipitate of transfected COS-7 cells, immunoblotted with anti-myc antibody. A general note: A western blot detects proteins with antibodies after separation by electrophoresis.
The next assay has as its target myc-KIR6.1 (mouse) (UniProt P97794). Described as above.

These are yes or no findings as the source states them, for the method shown. For some of these results: In cells and extracts the contact can be indirect. Some results given as binding are weak or reduced against the parent protein; the word gives no strength. For some of these results: Where a sequence is shown, tags or fusion partners need not be part of it.

With “sulfonylurea receptor 1 (SUR1) (from UniProt Q09428 1-1581)”, the binding result in assay [1] and in assay [2] was “binds” throughout.

B1: myc-KIR6.2 (protein, UniProt Q61743 1-390)
chain: MLSRKGIIPEEYVLTRLAEDPAEPRYRTRERRARFVSKKGNCNVAHKNIREQGRFLQDVFTTLVDLKWPHTLLIFTMSFLCSWLLFAMVWWLIAFAHGDLAPGEGTNVPCVTSIHSFSSAFLFSIEVQVTIGFGGRMVTEECPLAILILIVQNIVGLMINAIMLGCIFMKTAQAHRRAETLIFSKHAVITLRHGRLCFMLRVGDLRKSMIISATIHMQVVRKTTSPEGEVVPLHQVDIPMENGVGGNGIFLVAPLIIYHVIDSNSPLYDLAPSDLHHHQDLEIIVILEGVVETTGITTQARTSYLADEILWGQRFVPIVAEEDGRYSVDYSKFGNTIKVPTPLCTARQLDEDRSLLDALTLASSRGPLRKRSVAVAKAKPKFSISPDSLS
As to B1, the binding entry in the assay with myc-KIR6.2 (mouse) was “binds”.

B2: myc-KIR6.1 (protein, UniProt P97794 1-424)
chain: MLARKSIIPEEYVLARIAAENLRKPRIRDRLPKARFIAKSGACNLAHKNIREQGRFLQDIFTTLVDLKWRHTLVIFTMSFLCSWLLFAIMWWLVAFAHGDIYAYMEKGTMEKSGLESAVCVTNVRSFTSAFLFSIEVQVTIGFGGRMMTEECPLAITVLILQNIVGLIINAVMLGCIFMKTAQAHRRAETLIFSRHAVIAVRNGKLCFMFRVGDLRKSMIISASVRIQVVKKTTTPEGEVVPIHQQDIPVDNPIESNNIFLVAPLIICHVIDKRSPLYDISATDLANQDLEVIVILEGVVETTGITTQARTSYIAEEIQWGHRFVSIVTEEEGVYSVDYSKFGNTVRVAAPRCSARELDEKPSILIQTLQKSELSHQNSLRKRNSMRRNNSMRRNNSIRRNNSSLMVPKVQFMTPEGNQCPSES
Consider B2, for which the binding result with myc-KIR6.1 (mouse) is given as “binds”.

The values above are taken from article PMC6446209.
